Laboratory results reported in PMC7307841.

target: T1, NOR (NAC-NOR) (UniProt A0A3Q7J5X6); assay: EMSA; details: EMSA on native polyacrylamide gel as in Han et al. 2016 and Tan et al. 2018; pH and temperature not stated; recombinant protein; protein details: N-terminal …; label: biotin 3' end
T1 sequence (looked up, limits assumed): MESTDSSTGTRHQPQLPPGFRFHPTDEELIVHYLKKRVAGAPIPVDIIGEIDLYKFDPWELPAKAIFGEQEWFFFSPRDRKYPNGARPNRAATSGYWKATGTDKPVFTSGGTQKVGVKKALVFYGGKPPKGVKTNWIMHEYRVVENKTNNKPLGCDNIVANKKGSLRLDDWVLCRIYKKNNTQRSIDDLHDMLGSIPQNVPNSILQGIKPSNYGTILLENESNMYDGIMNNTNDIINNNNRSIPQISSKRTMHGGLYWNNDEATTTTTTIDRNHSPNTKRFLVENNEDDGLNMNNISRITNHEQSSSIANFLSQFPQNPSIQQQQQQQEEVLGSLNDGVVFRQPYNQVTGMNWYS

Binding result, binds:
AATAAATTCTTTTTGACAGGGTGGCGTAAAAATAATTTTATTTTAAAATA (double strand) [SlACS2 wild probe], TACGTTTAGGATAGGACTTCATTACGTGTCAAGGACAAAAATAAACCTAT (double strand) [SlGgpps2 wild probe], TATCAATAACAGATAGTAATTTTACGTAATGATATTGAACGATGTATATA (double strand) [SlPL wild probe]

The exact form of at least one protein or probe is not confirmed. At least one verdict rests on a figure or table, not on a statement of the authors. Tags and fusion partners may be left off the protein sequences shown.
